No constants are given. Whether binding was seen depends on the method and setting. In cells and extracts the contact can be indirect. Binding calls can cover weak binding; strength is not graded here.
Molecular target: T1, CLOCK (human (endogenous in U2OS)) (UniProt O15516)
T1 sequence: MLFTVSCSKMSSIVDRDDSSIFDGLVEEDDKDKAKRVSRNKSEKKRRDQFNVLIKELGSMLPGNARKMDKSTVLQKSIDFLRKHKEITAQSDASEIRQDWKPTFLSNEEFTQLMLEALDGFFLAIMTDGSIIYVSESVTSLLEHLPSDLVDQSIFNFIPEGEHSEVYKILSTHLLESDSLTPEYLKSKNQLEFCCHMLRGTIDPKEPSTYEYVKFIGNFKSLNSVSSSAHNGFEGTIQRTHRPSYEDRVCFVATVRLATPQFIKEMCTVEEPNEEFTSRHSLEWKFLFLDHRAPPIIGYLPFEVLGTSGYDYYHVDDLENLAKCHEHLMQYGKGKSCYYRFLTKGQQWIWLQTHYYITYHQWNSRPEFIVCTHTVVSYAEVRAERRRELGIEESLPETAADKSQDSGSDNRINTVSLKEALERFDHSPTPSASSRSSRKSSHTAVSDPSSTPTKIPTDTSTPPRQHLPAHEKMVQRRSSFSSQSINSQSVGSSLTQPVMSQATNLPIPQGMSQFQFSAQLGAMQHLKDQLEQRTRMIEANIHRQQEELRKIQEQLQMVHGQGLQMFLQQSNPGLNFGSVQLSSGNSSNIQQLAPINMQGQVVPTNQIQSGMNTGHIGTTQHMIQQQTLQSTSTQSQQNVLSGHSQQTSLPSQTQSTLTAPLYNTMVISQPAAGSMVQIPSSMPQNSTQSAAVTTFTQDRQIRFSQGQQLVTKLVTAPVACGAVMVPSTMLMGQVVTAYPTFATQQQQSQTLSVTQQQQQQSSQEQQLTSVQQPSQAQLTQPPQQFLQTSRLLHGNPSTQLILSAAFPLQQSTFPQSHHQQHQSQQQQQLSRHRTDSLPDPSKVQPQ
Assay: co-IP; 1 µg rabbit anti-CLK IgG and Protein A DynaBeads with 500 µg total protein of U2OS lysate, 4 h at 4 °C; lysis buffer 10 mM Tris-Cl pH7.5, 100 mM NaCl, 5 mM EDTA, 1% Triton X-100, 0.05% SDS; 6 washes (150 mM NaCl, 0.4% Triton X-100, 0.05% SDS); immunoblot with mouse anti-BMAL1

binding	Substance
binds	BMAL1 c.821-1G>C (human (endogenous in U2OS))
binds	BMAL1 c.1524-3C>A (human (endogenous in U2OS))

Reference: article PMC12337293
